{"sequences": {"note": "Chains of the proteins cited; added tags and fusions are not shown.", "UniProt Q9NDJ2": "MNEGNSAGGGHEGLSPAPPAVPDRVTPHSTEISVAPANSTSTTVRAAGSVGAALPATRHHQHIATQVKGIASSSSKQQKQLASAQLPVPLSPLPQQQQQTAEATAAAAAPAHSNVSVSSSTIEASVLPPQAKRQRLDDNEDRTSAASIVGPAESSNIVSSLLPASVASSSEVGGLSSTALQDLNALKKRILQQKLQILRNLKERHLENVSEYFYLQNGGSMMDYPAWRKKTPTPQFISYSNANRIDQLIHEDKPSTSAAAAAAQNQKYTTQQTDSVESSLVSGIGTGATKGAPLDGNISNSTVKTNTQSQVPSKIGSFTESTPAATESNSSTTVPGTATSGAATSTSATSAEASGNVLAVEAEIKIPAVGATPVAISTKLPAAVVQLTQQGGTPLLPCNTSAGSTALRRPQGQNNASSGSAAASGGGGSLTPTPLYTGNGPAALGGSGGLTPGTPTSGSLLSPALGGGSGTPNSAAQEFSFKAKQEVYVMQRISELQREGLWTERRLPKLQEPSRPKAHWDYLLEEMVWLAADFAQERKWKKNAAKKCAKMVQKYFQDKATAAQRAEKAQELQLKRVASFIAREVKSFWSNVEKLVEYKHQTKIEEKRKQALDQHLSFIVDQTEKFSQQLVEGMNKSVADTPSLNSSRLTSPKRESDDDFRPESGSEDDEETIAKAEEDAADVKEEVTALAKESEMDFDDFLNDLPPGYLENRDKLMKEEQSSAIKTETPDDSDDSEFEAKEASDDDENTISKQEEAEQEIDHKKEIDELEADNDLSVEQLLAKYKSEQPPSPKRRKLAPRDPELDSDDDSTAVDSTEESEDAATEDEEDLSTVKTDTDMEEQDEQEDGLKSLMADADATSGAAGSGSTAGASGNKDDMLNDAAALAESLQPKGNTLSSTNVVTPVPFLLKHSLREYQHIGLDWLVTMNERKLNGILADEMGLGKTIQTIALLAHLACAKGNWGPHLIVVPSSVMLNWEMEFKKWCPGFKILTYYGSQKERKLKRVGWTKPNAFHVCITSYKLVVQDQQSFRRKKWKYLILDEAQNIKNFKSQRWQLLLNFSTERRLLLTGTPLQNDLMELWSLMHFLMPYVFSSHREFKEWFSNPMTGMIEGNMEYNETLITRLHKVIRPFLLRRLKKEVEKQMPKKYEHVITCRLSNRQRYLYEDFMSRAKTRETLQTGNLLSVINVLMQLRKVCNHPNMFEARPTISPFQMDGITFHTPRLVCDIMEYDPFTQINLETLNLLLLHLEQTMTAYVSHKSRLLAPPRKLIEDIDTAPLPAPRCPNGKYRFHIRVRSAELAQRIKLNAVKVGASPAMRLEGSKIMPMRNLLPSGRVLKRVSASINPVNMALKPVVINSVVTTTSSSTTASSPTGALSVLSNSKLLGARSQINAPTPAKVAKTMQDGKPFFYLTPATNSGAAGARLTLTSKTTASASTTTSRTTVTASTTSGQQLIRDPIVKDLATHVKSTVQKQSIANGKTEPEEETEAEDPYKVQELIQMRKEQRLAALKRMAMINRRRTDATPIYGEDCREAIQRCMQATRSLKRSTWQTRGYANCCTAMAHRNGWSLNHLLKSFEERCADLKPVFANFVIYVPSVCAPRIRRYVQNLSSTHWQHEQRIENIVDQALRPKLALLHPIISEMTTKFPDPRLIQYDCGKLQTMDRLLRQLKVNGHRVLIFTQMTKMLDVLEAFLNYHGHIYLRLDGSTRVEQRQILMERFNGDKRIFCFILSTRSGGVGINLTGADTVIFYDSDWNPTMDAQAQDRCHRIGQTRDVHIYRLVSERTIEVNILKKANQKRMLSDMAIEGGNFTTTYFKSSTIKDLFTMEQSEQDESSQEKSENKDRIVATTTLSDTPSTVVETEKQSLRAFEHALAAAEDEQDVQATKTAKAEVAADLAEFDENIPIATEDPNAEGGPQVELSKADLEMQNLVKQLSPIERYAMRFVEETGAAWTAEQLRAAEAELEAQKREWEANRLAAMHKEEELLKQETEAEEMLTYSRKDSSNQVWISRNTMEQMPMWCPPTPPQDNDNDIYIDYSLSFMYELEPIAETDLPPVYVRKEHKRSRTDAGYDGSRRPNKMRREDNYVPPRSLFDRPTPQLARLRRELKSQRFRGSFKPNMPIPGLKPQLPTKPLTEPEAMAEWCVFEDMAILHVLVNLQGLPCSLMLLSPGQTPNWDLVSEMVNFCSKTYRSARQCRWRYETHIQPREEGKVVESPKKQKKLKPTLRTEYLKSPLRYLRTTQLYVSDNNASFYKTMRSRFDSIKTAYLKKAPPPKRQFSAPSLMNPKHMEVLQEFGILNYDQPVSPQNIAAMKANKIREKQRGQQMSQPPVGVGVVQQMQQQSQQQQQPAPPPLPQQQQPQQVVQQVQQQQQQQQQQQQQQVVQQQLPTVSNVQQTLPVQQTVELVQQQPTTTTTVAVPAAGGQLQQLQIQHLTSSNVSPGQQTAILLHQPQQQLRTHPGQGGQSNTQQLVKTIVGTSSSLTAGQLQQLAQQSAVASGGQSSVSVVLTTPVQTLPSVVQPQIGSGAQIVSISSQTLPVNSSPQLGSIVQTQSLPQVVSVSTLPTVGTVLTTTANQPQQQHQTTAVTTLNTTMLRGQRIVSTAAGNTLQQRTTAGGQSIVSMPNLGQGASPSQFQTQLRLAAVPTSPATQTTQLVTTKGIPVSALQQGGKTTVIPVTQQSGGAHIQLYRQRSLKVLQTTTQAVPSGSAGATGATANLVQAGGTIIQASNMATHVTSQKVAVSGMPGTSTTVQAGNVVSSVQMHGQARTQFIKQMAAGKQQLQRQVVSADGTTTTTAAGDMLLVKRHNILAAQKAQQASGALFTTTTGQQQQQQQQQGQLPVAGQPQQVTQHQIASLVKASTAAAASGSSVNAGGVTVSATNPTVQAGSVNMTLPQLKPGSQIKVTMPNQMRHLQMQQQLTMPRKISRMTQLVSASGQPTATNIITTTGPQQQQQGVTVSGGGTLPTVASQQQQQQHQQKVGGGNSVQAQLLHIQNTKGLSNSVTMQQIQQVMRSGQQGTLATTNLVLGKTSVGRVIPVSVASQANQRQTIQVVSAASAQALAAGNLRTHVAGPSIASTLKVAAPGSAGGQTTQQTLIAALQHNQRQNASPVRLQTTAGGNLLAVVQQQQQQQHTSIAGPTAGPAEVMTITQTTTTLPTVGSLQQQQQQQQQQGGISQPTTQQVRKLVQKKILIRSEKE", "UniProt Q960X4": "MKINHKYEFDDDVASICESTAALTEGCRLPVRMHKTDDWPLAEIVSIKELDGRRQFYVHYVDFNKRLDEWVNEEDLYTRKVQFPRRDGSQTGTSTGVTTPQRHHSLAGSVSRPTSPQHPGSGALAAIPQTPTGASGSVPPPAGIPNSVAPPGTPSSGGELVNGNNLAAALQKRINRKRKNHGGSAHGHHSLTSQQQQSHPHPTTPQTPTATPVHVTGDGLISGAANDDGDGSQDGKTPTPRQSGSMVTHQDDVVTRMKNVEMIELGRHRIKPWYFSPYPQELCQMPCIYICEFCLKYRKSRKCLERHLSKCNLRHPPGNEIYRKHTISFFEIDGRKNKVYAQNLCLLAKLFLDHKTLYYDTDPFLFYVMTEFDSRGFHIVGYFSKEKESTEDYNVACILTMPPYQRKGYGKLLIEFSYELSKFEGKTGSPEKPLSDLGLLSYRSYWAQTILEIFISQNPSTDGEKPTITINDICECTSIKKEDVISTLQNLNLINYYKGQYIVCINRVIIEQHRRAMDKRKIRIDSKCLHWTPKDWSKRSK"}, "source": "paper PMC7239659", "note": "Results are given in words; binding and its absence hold for the method and conditions named. In cells and extracts the contact can be indirect. Here binding means that the protein was enriched with, or labelled near, the bait; the list need not be complete. A no says only that the protein was not detected with the bait.", "data": [{"target": "DOM-A (DOMINO isoform A, DOM-RA), endogenously 3XFLAG-tagged (D. melanogaster (endogenous in S2 cells)) (UniProt Q9NDJ2)", "test": "affinity purification with mass spectrometry; FLAG-m2 beads on 2 mg nuclear extract of S2 cells with endogenously 3XFLAG-tagged DOM-A or DOM-B, against mock purification from untagged S2 cells; Protein-RIPA buffer (150 mM NaCl, 0.5% IGEPAL, 0.5% Na-deoxycholate, 0.1% SDS) diluted 1:1, Benzonase, 3 hr at 4°C; very stringent conditions; enriched: FDR < 0.05 and log2 fold-change >0", "values": [{"molecule": "TIP60 (from UniProt Q960X4 1-541) (enzyme)", "binding": "binds"}, {"molecule": "NIPPED-A (from UniProt Q8I8U7 1-3790)", "binding": "binds"}, {"molecule": "ING3 (protein, UniProt Q9VWS0 1-686) MLYLEDYLEMIEHLPQELRDRFTEMRELDLAVQNNMDSLDKKAHMFFKQCKRDELQHESMDTEFHSLRGEYFKVMEDADEKVAIATQIHELVERYLRRLDSELFKFKCELEADNNGITEILERRSLELDGNSTAATALLLSMNQKENRYYGASSANTMVNSSTGHATGAATGSSGIALVSGAAGTGGALSSISTAQLGSSQRHRKLEKRRETICTVPVQEKRANLNHSLPVVGSGSTTAAAASSSSATTAAAAASLASATTAQTHVSNHIGSIAATHLTLPVAMGVAGGSSSLASSSLATGTGSLVRQLPTNLTHTVLSTSGGATAAAAAGGNSTSVVAAGTAHGHAHVSGHSAAGATVTYNLQQLGGGAAASSAIAAAASQAIVATQQMQQGRRTASLKASYEAIHGTAGTTTDFWTQAGQGGLQQSTAGSVTVAAGTALATGAAGGSSTGSHHSHHSQSHHGGHGHGHGHGHGHGHGHGHHSSSGHGGGHSSHHQEKKQKKKLTTALTLPTVQPTAGSSSGNSIGSSSSISLESVNKLTTSAALAAASATTTYMSVGGQALLAMTPGGGGGGNLAESSAEGVPAGMIAMNLPTTTVTPGSSLTIGENGLVVEQTNEGEWSYDPNEPRYCTCNQVSYGDMVACDNDACPYEWFHYPCVGITQPPKGKWYCPKCTASMRRRGNRKN", "binding": "binds"}, {"molecule": "ARP6 (protein, UniProt P45890 1-398) MANAVVVLDNGAHTAKVGLANQDEPHVVPNCIMKAKSERRRAFVGNQIDECRDTSALYYILAFQRGYLLNWHTQKTVWDYIFSKDGIGCSLENRNIVITEPQMNFQSIQEATLEILFEEYKVDGVYKTTAADLAAFNYVADSEERTTMESLNCIIIDVGYSFTHVVPFVLGRRVLQGIRRIDMGGKALTNQLKELISYRHLNVMDESHVVNQIKEDVCFVAEDFKQAMQVHYSEEKRREVTVDYVLPDFTTVKRGYVRVPGKPREDEEQQQMVSLCNERFTVPELLFNPSDIGVQQVGIPEAVADCLKACPWEAHRELLLNILIVGGSAQFPGFLPRLKRDLRALVPDDLEVSLICPEDPVRYAWYGGKEVATSPNFEEFVYTQDDYEEYGFQGINQR", "binding": "no binding"}]}]}
